Data source: PubChem BioAssay AID1508597 (Cure First, 2020)

Aim: 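Knock-downs altering ovarian cancer cell survival with or without PARP inhibitor rucaparib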 (primary screen)
Cell system: human ovarian carcinoma lines grown from tumours: OCI-P5x (papillary serous) and OCI-C5x (clear cell)
Knock-down reagent: siRNA pool against human genes, 1.25 pmol siRNA per well
Timing: 72 h or 96 h, depending on the cell culture
Conditions: rucaparib 20 µM (about IC30) or vehicle, present until read-out
Measured: 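ATP luminescence measured at 72 or 96 h according to the culture, then normalised and expressed as percent viability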
Direction: viability, normalised: higher = more viable cells remaining
Call rule: 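a well counts as a hit if its normalised viability is under 80 percent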
Calls: active = viability under 80%; inactive = viability 80% or more
Shown is one part, drawn at random, of about 2,100 reagents. 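Calls flag viability under 80% in either arm, not effects specific to rucaparib; the reference for percent is not stated.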 A number with no mark means an inactive call. Not stated in the record: the 100% reference.

{"Target gene":"SOX6 (GeneID 55553)","rucaparib or vehicle":"Rucaparib","cell line":"OCI-C5x (clear cell)","technical replicate":"1","viability, normalised (%)":"59 (active)"}
{"Target gene":"SOX6 (GeneID 55553)","rucaparib or vehicle":"Rucaparib","cell line":"OCI-C5x (clear cell)","technical replicate":"2","viability, normalised (%)":"41.6 (active)"}
{"Target gene":"SOX6 (GeneID 55553)","rucaparib or vehicle":"Rucaparib","cell line":"OCI-C5x (clear cell)","technical replicate":"3","viability, normalised (%)":"50 (active)"}
{"Target gene":"SOX6 (GeneID 55553)","rucaparib or vehicle":"Rucaparib","cell line":"OCI-P5x (serous)","technical replicate":"1","viability, normalised (%)":"45.1 (active)"}
{"Target gene":"SOX6 (GeneID 55553)","rucaparib or vehicle":"Rucaparib","cell line":"OCI-P5x (serous)","technical replicate":"2","viability, normalised (%)":"39.8 (active)"}
{"Target gene":"SOX6 (GeneID 55553)","rucaparib or vehicle":"Rucaparib","cell line":"OCI-P5x (serous)","technical replicate":"3","viability, normalised (%)":"31.3 (active)"}
{"Target gene":"SOX6 (GeneID 55553)","rucaparib or vehicle":"Vehicle","cell line":"OCI-C5x (clear cell)","technical replicate":"1","viability, normalised (%)":"56.5 (active)"}
{"Target gene":"SOX6 (GeneID 55553)","rucaparib or vehicle":"Vehicle","cell line":"OCI-C5x (clear cell)","technical replicate":"2","viability, normalised (%)":"56.9 (active)"}
{"Target gene":"SOX6 (GeneID 55553)","rucaparib or vehicle":"Vehicle","cell line":"OCI-C5x (clear cell)","technical replicate":"3","viability, normalised (%)":"50.1 (active)"}
{"Target gene":"SOX6 (GeneID 55553)","rucaparib or vehicle":"Vehicle","cell line":"OCI-P5x (serous)","technical replicate":"1","viability, normalised (%)":"35.3 (active)"}
{"Target gene":"SOX6 (GeneID 55553)","rucaparib or vehicle":"Vehicle","cell line":"OCI-P5x (serous)","technical replicate":"2","viability, normalised (%)":"59.7 (active)"}
{"Target gene":"SOX6 (GeneID 55553)","rucaparib or vehicle":"Vehicle","cell line":"OCI-P5x (serous)","technical replicate":"3","viability, normalised (%)":"38.9 (active)"}
{"Target gene":"PRMT6 (GeneID 55170)","rucaparib or vehicle":"Rucaparib","cell line":"OCI-C5x (clear cell)","technical replicate":"1","viability, normalised (%)":"57.7 (active)"}
{"Target gene":"PRMT6 (GeneID 55170)","rucaparib or vehicle":"Rucaparib","cell line":"OCI-C5x (clear cell)","technical replicate":"2","viability, normalised (%)":"45.2 (active)"}
{"Target gene":"PRMT6 (GeneID 55170)","rucaparib or vehicle":"Rucaparib","cell line":"OCI-C5x (clear cell)","technical replicate":"3","viability, normalised (%)":"42.7 (active)"}
{"Target gene":"PRMT6 (GeneID 55170)","rucaparib or vehicle":"Rucaparib","cell line":"OCI-P5x (serous)","technical replicate":"1","viability, normalised (%)":"48.7 (active)"}
{"Target gene":"PRMT6 (GeneID 55170)","rucaparib or vehicle":"Rucaparib","cell line":"OCI-P5x (serous)","technical replicate":"2","viability, normalised (%)":"76.6 (active)"}
{"Target gene":"PRMT6 (GeneID 55170)","rucaparib or vehicle":"Rucaparib","cell line":"OCI-P5x (serous)","technical replicate":"3","viability, normalised (%)":"67.9 (active)"}
{"Target gene":"PRMT6 (GeneID 55170)","rucaparib or vehicle":"Vehicle","cell line":"OCI-C5x (clear cell)","technical replicate":"1","viability, normalised (%)":"35 (active)"}
{"Target gene":"PRMT6 (GeneID 55170)","rucaparib or vehicle":"Vehicle","cell line":"OCI-C5x (clear cell)","technical replicate":"2","viability, normalised (%)":"51.1 (active)"}
{"Target gene":"PRMT6 (GeneID 55170)","rucaparib or vehicle":"Vehicle","cell line":"OCI-C5x (clear cell)","technical replicate":"3","viability, normalised (%)":"48.7 (active)"}
{"Target gene":"PRMT6 (GeneID 55170)","rucaparib or vehicle":"Vehicle","cell line":"OCI-P5x (serous)","technical replicate":"1","viability, normalised (%)":"49.1 (active)"}
{"Target gene":"PRMT6 (GeneID 55170)","rucaparib or vehicle":"Vehicle","cell line":"OCI-P5x (serous)","technical replicate":"2","viability, normalised (%)":"55.8 (active)"}
{"Target gene":"PRMT6 (GeneID 55170)","rucaparib or vehicle":"Vehicle","cell line":"OCI-P5x (serous)","technical replicate":"3","viability, normalised (%)":82.3}
{"Target gene":"HDAC3 (GeneID 8841)","rucaparib or vehicle":"Rucaparib","cell line":"OCI-C5x (clear cell)","technical replicate":"1","viability, normalised (%)":"54.4 (active)"}
{"Target gene":"HDAC3 (GeneID 8841)","rucaparib or vehicle":"Rucaparib","cell line":"OCI-C5x (clear cell)","technical replicate":"2","viability, normalised (%)":"54.5 (active)"}
{"Target gene":"HDAC3 (GeneID 8841)","rucaparib or vehicle":"Rucaparib","cell line":"OCI-C5x (clear cell)","technical replicate":"3","viability, normalised (%)":"50.1 (active)"}
{"Target gene":"HDAC3 (GeneID 8841)","rucaparib or vehicle":"Rucaparib","cell line":"OCI-P5x (serous)","technical replicate":"1","viability, normalised (%)":"59.6 (active)"}
{"Target gene":"HDAC3 (GeneID 8841)","rucaparib or vehicle":"Rucaparib","cell line":"OCI-P5x (serous)","technical replicate":"2","viability, normalised (%)":"76.6 (active)"}
{"Target gene":"HDAC3 (GeneID 8841)","rucaparib or vehicle":"Rucaparib","cell line":"OCI-P5x (serous)","technical replicate":"3","viability, normalised (%)":"49.8 (active)"}
{"Target gene":"HDAC3 (GeneID 8841)","rucaparib or vehicle":"Vehicle","cell line":"OCI-C5x (clear cell)","technical replicate":"1","viability, normalised (%)":"58.9 (active)"}
{"Target gene":"HDAC3 (GeneID 8841)","rucaparib or vehicle":"Vehicle","cell line":"OCI-C5x (clear cell)","technical replicate":"2","viability, normalised (%)":"54.7 (active)"}
{"Target gene":"HDAC3 (GeneID 8841)","rucaparib or vehicle":"Vehicle","cell line":"OCI-C5x (clear cell)","technical replicate":"3","viability, normalised (%)":"59.5 (active)"}
{"Target gene":"HDAC3 (GeneID 8841)","rucaparib or vehicle":"Vehicle","cell line":"OCI-P5x (serous)","technical replicate":"1","viability, normalised (%)":"64.4 (active)"}
{"Target gene":"HDAC3 (GeneID 8841)","rucaparib or vehicle":"Vehicle","cell line":"OCI-P5x (serous)","technical replicate":"2","viability, normalised (%)":83.2}
{"Target gene":"HDAC3 (GeneID 8841)","rucaparib or vehicle":"Vehicle","cell line":"OCI-P5x (serous)","technical replicate":"3","viability, normalised (%)":80.6}

Taken from above.
Entry of HDAC3 (GeneID 8841), rucaparib or vehicle Rucaparib, cell line OCI-P5x (serous), technical replicate 3 under “viability, normalised (%)”: 49.8 (active)
Under “viability, normalised (%)”, SOX6 (GeneID 55553), rucaparib or vehicle Vehicle, cell line OCI-P5x (serous), technical replicate 2 is entered as 59.7 (active)
